The labels stand for the following.
T1: CD23 purified to homogeneity from CHO-transfected cells (human) (UniProt P06734)
T1 sequence (looked up): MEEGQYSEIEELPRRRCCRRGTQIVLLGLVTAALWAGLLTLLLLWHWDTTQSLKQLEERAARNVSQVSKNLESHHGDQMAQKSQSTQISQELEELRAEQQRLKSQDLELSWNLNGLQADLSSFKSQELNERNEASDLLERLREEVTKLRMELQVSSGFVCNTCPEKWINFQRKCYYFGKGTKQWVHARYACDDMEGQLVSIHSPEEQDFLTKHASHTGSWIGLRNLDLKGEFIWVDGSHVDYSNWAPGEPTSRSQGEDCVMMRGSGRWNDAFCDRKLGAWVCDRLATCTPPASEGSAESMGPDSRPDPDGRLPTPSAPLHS

T2: CD23 (FCεRII) on human CD23+ cells (human, UniProt P06734 1-321)
T2 sequence (looked up): T1 sequence (looked up)

No constants are given. Whether binding was seen depends on the method and setting. Some results given as binding are weak or reduced against the parent protein; the word gives no strength.

The first experiment has as its target T1, CD23 purified to homogeneity from CHO-transfected cells (human). Description: biopanning of M13 7-mer phage library on CD23-coated dishes.
In the case of FHSQWPG [FHSQWPG (p30F)], the binding result was “binds”.
With FHENWPS [FHENWPS peptide (p30A)], the binding entry is “binds”.
The same measure, in the same setting: the result for FHEFWPT [FHEFWPT (p30D)] reads “binds”; that for FHSQWPN [FHSQWPN (p30E)], “binds”; that for FHESWPP [FHESWPP (p30B)], “binds”.
With FHEFWPL [FHEFWPL (p30C)], the binding entry is recorded as “binds”.

A further experiment has as its target T2, CD23 (FCεRII) on human CD23+ cells. Description: inhibition of anti-CD23-FITC mAb binding to CD23+ cells; Activity grade.
As to FHENAPS [Compound 329], the binding result was “binds”.
As to HENAPS [Compound 436], the binding entry is given as “binds”.

Values taken from US20080039402A1 (UNIVERSITE BORDEAUX 2, published 2008).
